Data published in patent US8697387B2, “Methods for identifying agents and their use for the prevention of restenosis” (DiscoverRx Corporation, priority 2006, dated 2014).
At least one compound was matched to its structure with a doubt left.

Tested on: BioMAP Systems (human primary cell-based assay systems: endothelial cells, smooth muscle cells, PBMC, fibroblasts)
Assay: BioMAP Systems screen scored for desired anti-restenosis parameter modulation
Details: tested doses
From the text: The BioMAP Systems that model the relevant biological processes (smooth muscle cell hyperplasia, tissue remodeling, inflammation etc, including the measurements of readout parameters listed in Table 1), and are used for screening are listed in Table 2. Each of the cells listed in Table 1 can be utilized in one or more of the systems described below. For example, smooth muscle cells are used in CASM3C; CASMNo; SM3C and SMNo systems. Such BioMap systems are generally primary human cell based assays. […]
These assays are scored according to their modulation of the selected readout parameters. […]
The levels of readout parameters were measured by ELISA. […] Plates were washed and developed with TMB substrate and the absorbance (OD) was read at 450 nm (subtracting the background absorbance at 650 nm). Quantitation of TNF-alpha in the LPS system was done using a commercially available kit according to the manufacturer's directions. Proliferation of endothelial cells (HUVEC and CAEC), smooth muscle cels (SMC and CASMC), and PBMC (T cells) was quantitated by Alamar blue or SRB reduction.
Mean OD values for each parameter were calculated from triplicate samples per experiment. […] 99% prediction envelopes (grey shading in Figures) were calculated for historical controls.

| SMILES | Activity over tested dose range in BioMAP Systems |
| --- | --- |
| C[C@@H]1C[C@H]2[C@@H]3CCC4=CC(=O)C=C[C@]4(C)[C@@]3(F)[C@@H](O)C[C@]2(C)[C@@]1(O)C(=O)CO [dexamethasone] | active over the entire dose range |
| CO[C@H]1C[C@@H]2CC[C@@H](C)[C@@](O)(O2)C(=O)C(=O)N2CCCC[C@H]2C(=O)O[C@H]([C@H](C)C[C@@H]2CC[C@@H](O)[C@H](OC)C2)CC(=O)[C@H](C)/C=C(\C)[C@@H](O)[C@@H](OC)C(=O)[C@H](C)C[C@H](C)/C=C/C=C/C=C/1C [Rapamycin] | active over the entire dose range |
